Source: PubChem BioAssay AID540276 (National Center for Advancing Translational Sciences (NCATS), 2011)
Where “and” joins values, the source holds several entries; their conditions need not be identical. Equal values may be shown once. In all, about 300,000 compounds went through this assay and about 5,400 (1.8%) were called active. The shares of active, inactive and inconclusive entries below differ from those in the screen. The call rests on the fitted dose curve; tested in HEK293 cells. Potencies beside an inconclusive call are fits to weak or partial responses and may not hold up.

Experiment: qHTS for inhibitors of binding or entry into cells for Marburg Virus
Details: Marburg virus pseudotyped entry inhibition, cell reporter; series mostly up to 37.8 µM
Potency means the concentration at half of the fitted maximal effect.

Row | Structure (SMILES) | Potency
1 | CCOC(=O)C1CCCN(C(=O)c2cccc([N+](=O)[O-])c2C)C1 (stereo not given) | inconclusive: 1.12 µM [inhibitor, partial curve, poor fit]
2 | CC(C)CNC(=O)C(=O)NCC(c1ccc2c(c1)OCO2)N1CCOCC1 (stereo not given) | inconclusive: 3.55 µM [activator, partial curve, poor fit]
3 | CC(=O)Nc1ccc(S(=O)(=O)N(C)C2CCN(C)CC2)cc1 | inactive
4 | Cn1c(Cl)cnc1[C@H]1CC(=O)c2cc(Cl)ccc2O1 | active: 10 µM
5 | COc1ccc(NC(=O)CN(Cc2ccccc2)Cc2ccccc2)cc1S(N)(=O)=O | inactive
6 | CCCCn1c(SC(C)C(=O)c2ccc(OC)cc2)nc2cc(S(N)(=O)=O)ccc21 (stereo not given) | inconclusive: 29.1 µM [inhibitor, partial curve, poor fit]
7 | COc1ccc(NC2=NC(=S)N(c3ccccc3C)C23CCCCC3)cc1 | inactive
8 | Cc1ccccc1NC(=S)N(CCN1CCOCC1)Cc1ccccc1F | inconclusive: 12.6 µM [activator, single point]
9 | Cc1cc(C)c2[nH]c(=O)c(C(c3nnnn3C(C)(C)C)N3CCN(C(=O)c4ccco4)CC3)cc2c1 (stereo not given) | inconclusive: 29.1 µM [inhibitor, single point]
10 | O=C(c1ccco1)N1CCN(C(=O)c2ccc(COc3ccc4c(c3)CCC4)o2)CC1 | inconclusive: 0.708 µM [activator, single point]
11 | Cc1ccc(C(=O)CCS(=O)(=O)c2ccc(Cl)cc2)cc1 | inactive
12 | Cc1cc(C)n2cc(CSc3nc4cc(Cl)ccc4o3)nc2n1 | inactive
13 | CCc1nc2ccccc2n1CC(=O)Nc1cc(C)on1 | inconclusive: 3.55 µM [activator, partial curve, poor fit]
14 | CCCc1nc2c(=O)n(C)c(=O)nc-2n(C)n1 | inconclusive: 2.51 µM [inhibitor, full curve, poor fit]
15 | CC(OC(=O)Cc1ccsc1)C(=O)Nc1ccc(Cl)cn1 (stereo not given) | inactive
16 | Cc1cc(=O)n2c3c(c4c(cc13)c(CN(C)C)cc(=O)n4C)OC2 | inconclusive: 35.5 µM [inhibitor, partial curve, poor fit]
17 | COc1ccc(C(NC(=O)C(C)C)c2ccc3cccnc3c2O)cc1 (stereo not given) | inconclusive: 0.708 µM [inhibitor, full curve, poor fit]
18 | Clc1ccc(/C=N/Nc2ncnc3ccccc23)cc1Cl | inconclusive: 12.6 µM [inhibitor, single point]
19 | Cc1cn[nH]c1 | inconclusive: 16.4 µM [activator, partial curve, poor fit] and inconclusive: 5.62 µM [inhibitor, single point]
20 | O=C(Nc1ccc(Br)c(C(F)(F)F)c1)c1ccccc1 | inactive
21 | Cc1ccc2oc(-c3cccc(NC(=O)c4cc(-n5cnnc5)ccc4Cl)c3)nc2c1 | inconclusive: 14.6 µM [inhibitor, partial curve, poor fit]
22 | COc1ccc(C(=O)NC(C(=O)N2CCc3ccccc32)C(C)C)cc1 (stereo not given) | inactive
23 | CCOC(=O)C1(C)C=C(Nc2cccc(C(=O)O)c2)C(=O)N1c1cccc(C(=O)O)c1 (stereo not given) | inactive
24 | CC1=NN(C(=O)c2csc(C(C)C)c2)C(O)(C(F)(F)F)C1 (stereo not given) | inconclusive: 14.1 µM [activator, single point]

Row | Structure (SMILES) | Potency
25 | CSc1ccccc1Sc1cc(C(=O)O)c2ccccc2n1 | inconclusive: 2 µM [activator, partial curve, poor fit]
26 | CC(=O)Nc1ccc2nc3c(=O)[nH]c(=O)[nH]c3nc2c1 | inactive
27 | Cc1ccccc1N1CN(Cc2ccco2)CNC1=S | inconclusive: 1.26 µM [activator, single point]
28 | COc1ccccc1/C=C1\SC(=S)N(CCC(=O)Nc2cc(C)on2)C1=O | inconclusive: 0.631 µM [inhibitor, full curve, poor fit]
29 | COc1ccccc1C1Nc2ccccc2-n2c(-c3ccccc3)c3c(=O)n(C)c(=O)n(C)c3c21 (stereo not given) | inconclusive: 8.91 µM [inhibitor, partial curve, poor fit]
30 | CS(=O)(=O)N(CC(=O)Nc1ccccc1-c1ccccc1)c1ccc(F)cc1 | inconclusive: 35.5 µM [inhibitor, single point]
31 | Nc1nc(N)c(Br)c(Nc2ccc(Cl)c(Cl)c2)n1 | inconclusive: 20 µM [inhibitor, partial curve, poor fit]
32 | Cc1noc(-c2ccc(N3CCCCC3)c([N+](=O)[O-])c2)n1 | inconclusive: 1.58 µM [inhibitor, full curve, poor fit]
33 | O=C(O)CSc1nc(-c2cccs2)cc(C(F)(F)F)n1 | inconclusive: 3.55 µM [activator, full curve, poor fit]
34 | COc1cccc(-c2nc(-c3ccccc3)no2)c1 | inconclusive: 35.5 µM [inhibitor, single point]
35 | CCOC(=O)C1=C(C)OC(N)=C(C#N)C1c1cccs1 (stereo not given) | inactive
36 | Cc1ccc(C)c(SCC(=O)Nc2cccc(S(=O)(=O)NC3=NCCCCC3)c2)c1 | inconclusive: 0.631 µM [activator, full curve, poor fit]
37 | Cc1nc(C)c(-c2ccc(SCC(=O)Nc3cccc(Cl)c3)nn2)s1 | inactive
38 | COc1ccc(C(=O)N2CCC(C(=O)Nc3ccc4c(c3)OCCO4)CC2)cc1 | inactive
39 | N#Cc1cc(Oc2ccccc2)c(-n2nnc3ccccc32)cc1C#N | inactive
40 | CCOc1ccccc1C(=O)n1nc(C)cc1C | inactive
41 | C=CCNCCOc1ccccc1-c1ccccc1 | inconclusive: 14.1 µM [inhibitor, single point]
42 | Cc1cc(CN(C)C(=O)c2cc(COc3ccc(F)cc3Cl)on2)n[nH]1 | inconclusive: 28.2 µM [inhibitor, single point]
43 | Cc1oc(C)c2c(=O)cc(-c3ccc4c(c3)OCO4)cc(OC(=O)c3cccc(Br)c3)c12 | inactive
44 | Cc1ccc(S(=O)(=O)N(C)C)cc1NC(=S)NC(C)CCC(C)C (stereo not given) | inconclusive: 7.94 µM [inhibitor, partial curve, poor fit]
45 | O=C(CCn1cnnn1)Nc1ccc(F)cc1 | inconclusive: 12.6 µM [activator, partial curve, poor fit]
46 | COc1ccc(CCNC(=O)c2cc(S(=O)(=O)N3CCCCC3)ccc2Cl)cc1 | inconclusive: 14.1 µM [inhibitor, single point]
47 | CCC(C(=O)Nc1cc(Cl)ccc1OC)c1ccccc1 (stereo not given) | inactive
48 | Cc1ccc(NC(=S)NC2CC3CCCC(C2)N3Cc2cccs2)cc1 (stereo not given) | inconclusive: 7.3 µM [inhibitor, partial curve, poor fit]

Quoted from above: nos. 40–45
Row | Structure (SMILES) | Potency
40 | CCOc1ccccc1C(=O)n1nc(C)cc1C | inactive
41 | C=CCNCCOc1ccccc1-c1ccccc1 | inconclusive: 14.1 µM [inhibitor, single point]
42 | Cc1cc(CN(C)C(=O)c2cc(COc3ccc(F)cc3Cl)on2)n[nH]1 | inconclusive: 28.2 µM [inhibitor, single point]
43 | Cc1oc(C)c2c(=O)cc(-c3ccc4c(c3)OCO4)cc(OC(=O)c3cccc(Br)c3)c12 | inactive
44 | Cc1ccc(S(=O)(=O)N(C)C)cc1NC(=S)NC(C)CCC(C)C (stereo not given) | inconclusive: 7.94 µM [inhibitor, partial curve, poor fit]
45 | O=C(CCn1cnnn1)Nc1ccc(F)cc1 | inconclusive: 12.6 µM [activator, partial curve, poor fit]

The list continues.

Row | Structure (SMILES) | Potency
49 | CCCSc1nnc(-c2cccc(S(=O)(=O)N(C)C)c2)n1-c1cc(OC)ccc1OC | inactive
50 | Cc1ccc(C(=O)NC2CCN(C(=O)Nc3ccccc3)CC2)cc1 | inactive
51 | CC1CC(C)CN(CC(=O)c2c[nH]c3ccccc23)C1 (stereo not given) | inconclusive: 12.6 µM [inhibitor, partial curve, poor fit]
52 | CSc1nsc(SCC(=O)Nc2ccc3c(c2)OCCO3)n1 | inactive
53 | c1ccc(CCN2CCC3(CC2)OCCO3)cc1 | inconclusive: 0.708 µM [inhibitor, single point]
54 | CC1=NN(C(N)=S)C(=O)C1N=Nc1cc(Cl)ccc1Cl (stereo not given) | inconclusive: 0.631 µM [activator, full curve, poor fit]
55 | S=c1nc(-c2ccccc2Cl)[nH][nH]1 | inactive
56 | Cc1ccc(S(=O)(=O)c2ccc([N+](=O)[O-])o2)cc1 | active: 7.94 µM
57 | c1ccc(-c2nc(NC[C@@H]3CCCO3)c3ccccc3n2)nc1 | inconclusive: 16.4 µM [inhibitor, partial curve, poor fit]
58 | Cc1ccc(-c2nc3cccnc3s2)cc1NC(=O)C1c2ccccc2Oc2ccccc21 | inconclusive: 29.1 µM [activator, partial curve, poor fit]
59 | Cc1nc(C)c(C(=O)Nc2cccc(C)c2C)o1 | inconclusive: 4.11 µM [inhibitor, partial curve, poor fit]
60 | CCC1(c2ccccc2)NC(=O)N(CC(=O)Nc2cc(S(=O)(=O)N3CCCCC3)ccc2N(C)C)C1=O (stereo not given) | inconclusive: 35.5 µM [inhibitor, single point]
61 | O=C(C(=O)N1CCc2ccccc2C1)c1cn(CC(=O)N2CCCCC2)c2ccccc12 | inconclusive: 35.5 µM [inhibitor, single point]
62 | Clc1ccc(-c2nnc(-c3ccc(Br)o3)o2)c(Cl)c1 | inconclusive: 4.11 µM [activator, single point]
63 | O=C(c1ccc(S(=O)(=O)NCc2ccco2)cc1)N1CCN(Cc2ccccc2)CC1 | inactive
64 | CC(=O)c1ccc(NC(=O)CSC(C)C)cc1 | inconclusive: 4.11 µM [activator, single point]
65 | CCc1ccc(C(=O)CSc2nc3ccccc3c(=O)[nH]2)cc1 | inactive
66 | O=C1OCc2cc(-n3cccc3)ccc21 | inconclusive: 0.158 µM [inhibitor, full curve, poor fit]
67 | Cc1ccc(S(=O)(=O)Nc2cc3c4c(c2)C(C)C(=O)N4CCC3)cc1 (stereo not given) | inconclusive: 1.26 µM [activator, single point]
68 | CCn1c(C(=O)NCc2ccccc2C)cc2oc3ccccc3c21 | inconclusive: 1 µM [inhibitor, full curve, poor fit]
69 | CCN(CC)C(=O)c1ccc(NC(=O)c2cn(-c3ccccc3)nc2-c2ccc(OC)cc2)cc1 | inconclusive: 35.5 µM [inhibitor, single point]
70 | C=CCc1ccc(OCCN2CCc3ccccc3C2)c(OC)c1 | inconclusive: 0.316 µM [activator, partial curve, poor fit]
